T1: Ski3-TAP (S. cerevisiae) (UniProt P17883)
T1 sequence: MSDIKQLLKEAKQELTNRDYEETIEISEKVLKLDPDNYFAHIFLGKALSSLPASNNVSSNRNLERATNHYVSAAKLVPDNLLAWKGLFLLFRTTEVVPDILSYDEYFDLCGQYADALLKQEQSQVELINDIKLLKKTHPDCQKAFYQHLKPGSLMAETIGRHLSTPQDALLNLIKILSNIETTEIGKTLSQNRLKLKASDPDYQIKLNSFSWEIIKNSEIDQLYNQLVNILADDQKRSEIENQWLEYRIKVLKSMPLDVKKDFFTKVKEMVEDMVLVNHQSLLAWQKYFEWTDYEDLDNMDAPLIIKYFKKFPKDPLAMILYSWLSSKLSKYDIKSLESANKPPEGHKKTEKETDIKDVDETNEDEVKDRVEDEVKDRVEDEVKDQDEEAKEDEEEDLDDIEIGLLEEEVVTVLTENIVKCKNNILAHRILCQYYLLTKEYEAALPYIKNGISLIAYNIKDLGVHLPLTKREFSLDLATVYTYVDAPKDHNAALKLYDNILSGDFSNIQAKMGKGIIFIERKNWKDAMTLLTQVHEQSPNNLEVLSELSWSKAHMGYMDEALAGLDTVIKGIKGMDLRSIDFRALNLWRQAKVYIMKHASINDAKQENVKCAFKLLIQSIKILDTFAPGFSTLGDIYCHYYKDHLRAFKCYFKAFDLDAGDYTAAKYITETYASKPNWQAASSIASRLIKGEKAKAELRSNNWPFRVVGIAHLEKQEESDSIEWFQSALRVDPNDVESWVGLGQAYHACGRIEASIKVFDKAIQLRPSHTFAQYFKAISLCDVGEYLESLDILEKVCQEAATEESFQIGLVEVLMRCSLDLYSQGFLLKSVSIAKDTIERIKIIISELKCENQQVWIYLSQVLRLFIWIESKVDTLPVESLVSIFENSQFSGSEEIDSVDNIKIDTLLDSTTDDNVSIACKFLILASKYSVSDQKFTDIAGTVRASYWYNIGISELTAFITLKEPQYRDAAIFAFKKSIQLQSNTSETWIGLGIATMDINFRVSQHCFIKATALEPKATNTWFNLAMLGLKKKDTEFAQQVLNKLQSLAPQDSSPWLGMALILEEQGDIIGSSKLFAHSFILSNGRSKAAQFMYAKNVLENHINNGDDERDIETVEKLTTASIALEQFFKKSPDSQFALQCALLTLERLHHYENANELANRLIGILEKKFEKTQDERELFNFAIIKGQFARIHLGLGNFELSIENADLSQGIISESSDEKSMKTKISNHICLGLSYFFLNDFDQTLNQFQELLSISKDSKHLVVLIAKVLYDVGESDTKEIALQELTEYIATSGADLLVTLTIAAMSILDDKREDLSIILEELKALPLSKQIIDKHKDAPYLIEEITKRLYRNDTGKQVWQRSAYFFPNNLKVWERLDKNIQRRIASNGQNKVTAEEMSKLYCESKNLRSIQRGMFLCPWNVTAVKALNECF

B1: Dis3 (enzyme, UniProt Q08162 1-1001)
chain: MSVPAIAPRRKRLADGLSVTQKVFVRSRNGGATKIVREHYLRSDIPCLSRSCTKCPQIVVPDAQNELPKFILSDSPLELSAPIGKHYVVLDTNVVLQAIDLLENPNCFFDVIVPQIVLDEVRNKSYPVYTRLRTLCRDSDDHKRFIVFHNEFSEHTFVERLPNETINDRNDRAIRKTCQWYSEHLKPYDINVVLVTNDRLNREAATKEVESNIITKSLVQYIELLPNADDIRDSIPQMDSFDKDLERDTFSDFTFPEYYSTARVMGGLKNGVLYQGNIQISEYNFLEGSVSLPRFSKPVLIVGQKNLNRAFNGDQVIVELLPQSEWKAPSSIVLDSEHFDVNDNPDIEAGDDDDNNESSSNTTVISDKQRRLLAKDAMIAQRSKKIQPTAKVVYIQRRSWRQYVGQLAPSSVDPQSSSTQNVFVILMDKCLPKVRIRTRRAAELLDKRIVISIDSWPTTHKYPLGHFVRDLGTIESAQAETEALLLEHDVEYRPFSKKVLECLPAEGHDWKAPTKLDDPEAVSKDPLLTKRKDLRDKLICSIDPPGCVDIDDALHAKKLPNGNWEVGVHIADVTHFVKPGTALDAEGAARGTSVYLVDKRIDMLPMLLGTDLCSLKPYVDRFAFSVIWELDDSANIVNVNFMKSVIRSREAFSYEQAQLRIDDKTQNDELTMGMRALLKLSVKLKQKRLEAGALNLASPEVKVHMDSETSDPNEVEIKKLLATNSLVEEFMLLANISVARKIYDAFPQTAMLRRHAAPPSTNFEILNEMLNTRKNMSISLESSKALADSLDRCVDPEDPYFNTLVRIMSTRCMMAAQYFYSGAYSYPDFRHYGLAVDIYTHFTSPIRRYCDVVAHRQLAGAIGYEPLSLTHRDKNKMDMICRNINRKHRNAQFAGRASIEYYVGQVMRNNESTETGYVIKVFNNGIVVLVPKFGVEGLIRLDNLTEDPNSAAFDEVEYKLTFVPTNSDKPRDVYVFDKVEVQVRSVMDPITSKRKAELLLK
B2: Mtr3 (protein, UniProt P48240 1-250)
chain: MNVQDRRRLLGPAAAKPMAFSNTTTHVPEKKSTDLTPKGNESEQELSLHTGFIENCNGSALVEARSLGHQTSLITAVYGPRSIRGSFTSQGTISIQLKNGLLEKYNTNELKEVSSFLMGIFNSVVNLSRYPKSGIDIFVYLTYDKDLTNNPQDDDSQSKMMSSQISSLIPHCITSITLALADAGIELVDMAGAGEANGTVVSFIKNGEEIVGFWKDDGDDEDLLECLDRCKEQYNRYRDLMISCLMNQET
B3: Rrp40 (protein, UniProt Q08285 1-240)
chain: MSTFIFPGDSFPVDPTTPVKLGPGIYCDPNTQEIRPVNTGVLHVSAKGKSGVQTAYIDYSSKRYIPSVNDFVIGVIIGTFSDSYKVSLQNFSSSVSLSYMAFPNASKKNRPTLQVGDLVYARVCTAEKELEAEIECFDSTTGRDAGFGILEDGMIIDVNLNFARQLLFNNDFPLLKVLAAHTKFEVAIGLNGKIWVKCEELSNTLACYRTIMECCQKNDTAAFKDIAKRQFKEILTVKEE
B4: Rrp46 (protein, UniProt P53256 1-223)
chain: MSVQAEIGILDHVDGSSEFVSQDTKVICSVTGPIEPKARQELPTQLALEIIVRPAKGVATTREKVLEDKLRAVLTPLITRHCYPRQLCQITCQILESGEDEAEFSLRELSCCINAAFLALVDAGIALNSMCASIPIAIIKDTSDIIVDPTAEQLKISLSVHTLALEFVNGGKVVKNVLLLDSNGDFNEDQLFSLLELGEQKCQELVTNIRRIIQDNISPRLVV
B5: Csl4 (protein, UniProt P53859 1-292)
chain: MACNFQFPEIAYPGKLICPQYGTENKDGEDIIFNYVPGPGTKLIQYEHNGRTLEAITATLVGTVRCEEEKKTDQEEEREGTDQSTEEEKSVDASPNDVTRRTVKNILVSVLPGTEKGRKTNKYANNDFANNLPKEGDIVLTRVTRLSLQRANVEILAVEDKPSPIDSGIGSNGSGIVAAGGGSGAATFSVSQASSDLGETFRGIIRSQDVRSTDRDRVKVIECFKPGDIVRAQVLSLGDGTNYYLTTARNDLGVVFARAANGAGGLMYATDWQMMTSPVTGATEKRKCAKPF
B6: Rrp43 (protein, UniProt P25359 1-394)
chain: MAESTTLETIEIHPITFPPEVLARISPELSLQRHLSLGIRPCLRKYEEFRDVAIENNTLSRYADAGNIDTKNNILGSNVLKSGKTIVITSITGGIIEETSAAIKDLDDFGEEELFEVTKEEDIIANYASVYPVVEVERGRVGACTDEEMTISQKLHDSILHSRILPKKALKVKAGVRSANEDGTFSVLYPDELEDDTLNETNLKMKRKWSYVLYAKIVVLSRTGPVFDLCWNSLMYALQSVKLPRAFIDERASDLRMTIRTRGRSATIRETYEIICDQTKSVPLMINAKNIAFASNYGIVELDPECQLQNSDNSEEEEVDIDMDKLNTVLIADLDTEAEETSIHSTISILAAPSGNYKQLTLVGGGAKITPEMIKRSLLLSRVRADDLSTRFNI
B7: Rrp42 (protein, UniProt Q12277 1-265)
chain: MSLSVAEKSYLYDSLASTPSIRPDGRLPHQFRPIEIFTDFLPSSNGSSRIIASDGSECIVSIKSKVVDHHVENELLQVDVDIAGQRDDALVVETITSLLNKVLKSGSGVDSSKLQLTKKYSFKIFVDVLVISSHSHPVSLISFAIYSALNSTYLPKLISAFDDLEVEELPTFHDYDMVKLDINPPLVFILAVVGNNMLLDPAANESEVANNGLIISWSNGKITSPIRSVALNDSNVKSFKPHLLKQGLAMVEKYAPDVVRSLENL
B8: Rrp45 (protein, UniProt Q05636 1-305)
chain: MAKDIEISASESKFILEALRQNYRLDGRSFDQFRDVEITFGKEFGDVSVKMGNTKVHCRISCQIAQPYEDRPFEGLFVISTEISPMAGSQFENGNITGEDEVLCSRIIEKSVRRSGALDVEGLCIVAGSKCWAVRADVHFLDCDGGFIDASCIAVMAGLMHFKKPDITVHGEQIIVHPVNEREPVPLGILHIPICVTFSFFNPQDTEENIKGETNSEISIIDATLKEELLRDGVLTVTLNKNREVVQVSKAGGLPMDALTLMKCCHEAYSIIEKITDQILQLLKEDSEKRNKYAAMLTSENAREI
B9: Rrp4 (protein, UniProt P38792 1-359)
chain: MSEVITITKRNGAFQNSSNLSYNNTGISDDENDEEDIYMHDVNSASKSESDSQIVTPGELVTDDPIWMRGHGTYFLDNMTYSSVAGTVSRVNRLLSVIPLKGRYAPETGDHVVGRIAEVGNKRWKVDIGGKQHAVLMLGSVNLPGGILRRKSESDELQMRSFLKEGDLLNAEVQSLFQDGSASLHTRSLKYGKLRNGMFCQVPSSLIVRAKNHTHNLPGNITVVLGVNGYIWLRKTSQMDLARDTPSANNSSSIKSTGPTGAVSLNPSITRLEEESSWQIYSDENDPSISNNIRQAICRYANVIKALAFCEIGITQQRIVSAYEASMVYSNVGELIEKNVMESIGSDILTAEKMRGNGN
B10: Rrp41 (protein, UniProt P46948 1-246)
chain: MSRLEIYSPEGLRLDGRRWNELRRFESSINTHPHAADGSSYMEQGNNKIITLVKGPKEPRLKSQMDTSKALLNVSVNITKFSKFERSKSSHKNERRVLEIQTSLVRMFEKNVMLNIYPRTVIDIEIHVLEQDGGIMGSLINGITLALIDAGISMFDYISGISVGLYDTTPLLDTNSLEENAMSTVTLGVVGKSEKLSLLLVEDKIPLDRLENVLAIGIAGAHRVRDLMDEELRKHAQKRVSNASAR
B11: Ska1 (SKI-Associated component 1) (protein, UniProt P36103 1-277)
chain: MNKEELLGFLLDDSIDSQKRCVTDQQAYSNWLKNDNDERTAHEESSSQSTIAALNKKKQTEAAQEDIEELLNGLEGIIGGADPRNLKSKSKRKTKKGGSKPREENVNTEKHIVMLEVEDFSDMSTHEDVNGASPSPNLDRSKKNEKRRKNAKELSYDELKDKLEVTTRKSRLECKDLKKKVHGLERRNLELEQRLEELKIENQTLIEINNKLLKNTNEDEINKSQRNKEKDRKRRERRTARRKDERKQEKKQEKKQDNKTSQSFPSSTDMNGQPIEF

These are yes or no findings as the source states them, for the method shown. In cells and extracts the contact can be indirect. Here binding means that the protein was enriched with, or labelled near, the bait; the list need not be complete.

The assay has as its target T1, Ski3-TAP (S. cerevisiae). As to the kind of experiment: affinity purification with mass spectrometry.
B1: the binding entry is reported as “binds”.
For B2 the value was “binds”; for B3, “binds”; for B4, “binds”.
For B5 the value was “binds”; for B6, “binds”; for B7, “binds”.
For B8, the binding result is recorded as “binds”.
For B9 the value was “binds”.
Then B10, with “binds”; and B11, with “binds”.

For the origin of these results see doi:10.1101/409490.
